# In patent publication US20090246269A1, “IDENTIFICATION AND USE OF GPRC VARIANTS IN THE TREATMENT AND DIAGNOSIS OF PARKINSON'S DISEASE” (priority 2006, published 2009):
# At least one compound was matched to its structure with a doubt left. No end group written: not given here.
# Test system: SH-SY5Y cells
# Assay: Cell viability assay: rotenone toxicity in SH-SY5Y cells, ATP levels (ATPlite luminescence)
# Type: cell-based
substance,measurement,setting,value
"RPPGFSPFR-OH [bradykinin, Arg-Pro-Pro-Gly-Phe-Ser-Pro-Phe-Arg-OH]",bradykinin concentration at which an increase in ATP levels was observed over rotenone alone,"4 h pretreatment, 100 nM rotenone 40 h, then 0.05% FBS 8 hrs, bradykinin 0 to 10 uM",≥ 300 nM
same,bradykinin concentration at which an increase in relative cell viability was observed over rotenone alone,acute rotenone cell model,≥ 300 nm
